Test results: paper doi:10.1101/2021.10.07.463531
Where a chain is given by its changes, count along the chain named. No constants are given. Whether binding was seen depends on the method and setting. For part of these data: Binding seen in cells or lysates may run through a third protein. Some binding calls cover weakened binding; strength is not graded here. Sequences can lack the tags named with a protein.

Key:
[1] = molecular target: T1, HA-Bicc1 (full-length, wild type) (UniProt Q99MQ1); test: co-IP
T1 sequence: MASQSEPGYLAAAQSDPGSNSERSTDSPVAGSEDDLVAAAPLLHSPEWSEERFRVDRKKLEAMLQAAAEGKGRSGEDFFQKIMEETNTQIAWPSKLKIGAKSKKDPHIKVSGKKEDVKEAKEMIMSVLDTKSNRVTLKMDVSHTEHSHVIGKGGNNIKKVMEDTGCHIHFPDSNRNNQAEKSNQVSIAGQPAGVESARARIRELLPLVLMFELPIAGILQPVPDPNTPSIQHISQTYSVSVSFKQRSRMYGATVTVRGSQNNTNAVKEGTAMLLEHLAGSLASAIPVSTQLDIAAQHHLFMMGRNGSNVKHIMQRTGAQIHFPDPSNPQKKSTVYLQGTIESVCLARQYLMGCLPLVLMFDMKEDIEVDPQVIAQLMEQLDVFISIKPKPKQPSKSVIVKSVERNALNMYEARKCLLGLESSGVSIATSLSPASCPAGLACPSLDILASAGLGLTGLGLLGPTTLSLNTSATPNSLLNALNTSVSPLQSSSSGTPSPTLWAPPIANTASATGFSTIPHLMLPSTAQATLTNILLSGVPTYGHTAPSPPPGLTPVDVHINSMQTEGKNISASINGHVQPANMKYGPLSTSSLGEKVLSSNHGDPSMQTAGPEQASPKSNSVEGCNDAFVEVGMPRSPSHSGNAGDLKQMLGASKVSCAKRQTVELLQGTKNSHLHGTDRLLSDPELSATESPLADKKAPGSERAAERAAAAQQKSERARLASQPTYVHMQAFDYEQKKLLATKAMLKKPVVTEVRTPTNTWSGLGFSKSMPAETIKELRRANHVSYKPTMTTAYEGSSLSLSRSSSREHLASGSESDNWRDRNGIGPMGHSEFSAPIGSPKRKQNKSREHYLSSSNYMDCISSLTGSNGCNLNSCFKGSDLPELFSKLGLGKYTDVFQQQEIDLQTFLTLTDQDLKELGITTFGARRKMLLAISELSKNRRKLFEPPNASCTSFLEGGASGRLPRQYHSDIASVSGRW

HA-Bicc1 mutD = molecular target: T2, HA-Bicc1 mutD (UniProt Q99MQ1); test: co-IP
T2 sequence: T1 sequence with D913A, K915A, E916A

[2] = molecular target: fusion of ANKS3 with the DNA-binding domain of Gal4 (Gal4-BD) (UniProt Q6ZW76); test: two-hybrid
[3] = molecular target: T3, GST-Bicc1 (full-length, wild type) (UniProt Q99MQ1); test: pull-down
T3 sequence: T1 sequence

ANKS3-Flag = molecular target: T4, ANKS3-Flag (UniProt Q6ZW76); test: pull-down
T4 sequence: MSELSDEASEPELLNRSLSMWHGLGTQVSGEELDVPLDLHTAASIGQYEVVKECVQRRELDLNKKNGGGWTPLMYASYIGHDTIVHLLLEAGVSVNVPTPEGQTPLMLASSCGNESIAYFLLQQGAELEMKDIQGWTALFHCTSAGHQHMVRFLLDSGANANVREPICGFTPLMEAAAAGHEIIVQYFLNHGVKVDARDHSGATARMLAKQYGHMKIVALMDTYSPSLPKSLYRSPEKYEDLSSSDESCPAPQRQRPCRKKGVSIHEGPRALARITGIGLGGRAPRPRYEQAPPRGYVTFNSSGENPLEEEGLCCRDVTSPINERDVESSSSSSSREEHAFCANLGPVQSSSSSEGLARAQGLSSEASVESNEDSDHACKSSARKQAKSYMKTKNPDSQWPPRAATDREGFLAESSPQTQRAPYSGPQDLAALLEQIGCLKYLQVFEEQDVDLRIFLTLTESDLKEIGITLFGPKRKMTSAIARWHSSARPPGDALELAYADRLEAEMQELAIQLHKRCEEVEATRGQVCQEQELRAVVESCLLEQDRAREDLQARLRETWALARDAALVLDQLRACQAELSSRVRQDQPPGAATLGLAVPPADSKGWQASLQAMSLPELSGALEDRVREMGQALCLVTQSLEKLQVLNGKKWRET

B1: GFP-Bicc1 (protein, UniProt Q99MQ1 1-977)
chain: T1 sequence
binding [1]: binds | binding (HA-Bicc1 mutD): binds

B2: fusion of ANKS3 with the DNA-binding domain of Gal4 (Gal4-BD) (protein, UniProt Q6ZW76 1-656)
chain: T4 sequence
binding [2]: binds

B3: ANKS3-Flag (protein, UniProt Q6ZW76 1-656)
chain: T4 sequence
binding [1]: binds | binding [3]: binds

B4: v5-ANKS6 (protein, UniProt Q68DC2 1-871)
chain: MGEGGLPPAFQLLLRACDQGDTETARRLLEPGAAEPAERGAEPEAGAEPAGAEVAGPGAAAAGAVGAPVPVDCSDEAGNTALQFAAAGGHEPLVRFLLRRGASVNSRNHYGWSALMQAARFGHVSVAHLLLDHGADVNAQNRLGASVLTVASRGGHLGVVKLLLEAGAFVDHHHPSGEQLGLGGSRDEPLDITALMAAIQHGHEAVVRLLMEWGADPNHAARTVGWSPLMLAALTGRLGVAQQLVEKGANPDHLSVLEKTAFEVALDCKHRDLVDYLDPLTTVRPKTDEEKRRPDIFHALKMGNFQLVKEIADEDPSHVNLVNGDGATPLMLAAVTGQLALVQLLVERHADVDKQDSVHGWTALMQATYHGNKEIVKYLLNQGADVTLRAKNGYTAFDLVMLLNDPDTELVRLLASVCMQVNKDKGRPSHQPPLPHSKVRQPWSIPVLPDDKGGLKSWWNRMSNRFRKLKLMQTLPRGLSSNQPLPFSDEPEPALDSTMRAAPQDKTSRSALPDAAPVTKDNGPGSTRGEKEDTLLTTMLRNGAPLTRLPSDKLKAVIPPFLPPSSFELWSSDRSRTRHNGKADPMKTALPQRASRGHPVGGGGTDTTPVRPVKFPSLPRSPASSANSGNFNHSPHSSGGSSGVGVSRHGGELLNRSGGSIDNVLSQIAAQRKKAAGLLEQKPSHRSSPVGPAPGSSPSELPASPAGGSAPVGKKLETSKRPPSGTSTTSKSTSPTLTPSPSPKGHTAESSVSSSSSHRQSKSSGGSSSGTITDEDELTGILKKLSLEKYQPIFEEQEVDMEAFLTLTDGDLKELGIKTDGSRQQILAAISELNAGKGRERQILQETIHNFHSSFESSASNTRAPGNSPCA
binding (ANKS3-Flag): binds
